The target of experiment [1] is glucocorticoid receptor (not stated (endogenous in osteoblasts; mouse MC3T3 and human hFOB1.19 lines were cultured)) (UniProt P06537). In words: co-IP; osteoblasts treated with dexamethasone for 24 h; co-immunoprecipitation followed by immunoblotting with antibodies to aurora A or the glucocorticoid receptor. For orientation: A western blot detects proteins with antibodies after separation by electrophoresis.

Amino acid sequences for entries named in this document (tags omitted).
UniProt P06537: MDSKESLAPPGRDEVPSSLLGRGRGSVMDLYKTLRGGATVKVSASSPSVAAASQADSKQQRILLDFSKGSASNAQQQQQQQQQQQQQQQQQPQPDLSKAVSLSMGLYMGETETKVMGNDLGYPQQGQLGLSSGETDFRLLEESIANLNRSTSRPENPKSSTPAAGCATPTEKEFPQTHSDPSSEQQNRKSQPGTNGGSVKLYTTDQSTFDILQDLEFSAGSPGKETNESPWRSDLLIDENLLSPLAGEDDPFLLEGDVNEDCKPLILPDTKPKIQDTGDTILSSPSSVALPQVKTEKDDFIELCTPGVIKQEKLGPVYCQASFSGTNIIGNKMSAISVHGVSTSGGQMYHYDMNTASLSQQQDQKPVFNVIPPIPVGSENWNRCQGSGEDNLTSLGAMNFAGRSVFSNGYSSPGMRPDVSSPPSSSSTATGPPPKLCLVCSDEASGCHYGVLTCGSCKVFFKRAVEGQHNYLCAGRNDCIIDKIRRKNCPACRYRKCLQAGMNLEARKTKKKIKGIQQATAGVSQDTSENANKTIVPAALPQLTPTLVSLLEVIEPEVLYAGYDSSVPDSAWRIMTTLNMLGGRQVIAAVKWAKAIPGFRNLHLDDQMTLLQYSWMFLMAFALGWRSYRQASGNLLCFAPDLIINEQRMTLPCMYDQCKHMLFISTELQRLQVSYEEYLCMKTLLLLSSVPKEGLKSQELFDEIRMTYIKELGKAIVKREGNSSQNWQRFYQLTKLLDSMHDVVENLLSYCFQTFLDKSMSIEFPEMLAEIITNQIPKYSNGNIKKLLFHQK

The target is the same in experiment [2]. In words: condition: only cells treated with VX680 (with dexamethasone); co-IP; osteoblasts treated with dexamethasone in combination with the aurora kinase inhibitor VX680 for 24 h; co-immunoprecipitation followed by immunoblotting with antibodies to aurora A or the glucocorticoid receptor.

One molecule from PMC10605378 can be followed below.

No constants are given. Whether binding was seen depends on the method and setting. Binding seen in cells or lysates may run through a third protein. Some results given as binding are weak or reduced against the parent protein; the word gives no strength.

B1: aurora kinase A (enzyme, UniProt P97477 1-395)
chain: MDRCKENCVSRPVKTTVPFGPKRVLVTEQIPSQNLGSASSGQAQRVLCPSNSQRVPSQAQKLGAGQKPAPKQLPAASVPRPVSRLNNPQKNEQPAASGNDSEKEQASLQKTEDTKKRQWTLEDFDIGRPLGKGKFGNVYLARERQSKFILALKVLFKTQLEKANVEHQLRREVEIQSHLRHPNILRLYGYFHDATRVYLILEYAPLGTVYRELQKLSKFDEQRTATYITELANALSYCHSKRVIHRDIKPENLLLGSNGELKIADFGWSVHAPSSRRTTMCGTLDYLPPEMIEGRMHDEKVDLWSLGVLCYEFLVGMPPFEAHTYQETYRRISRVEFTFPDFVTEGARDLISRLLKHNASQRLTLAEVLEHPWIKANSSKPPTGHTSKEPTSKSS
In the case of B1, the binding entry in experiment [1] is recorded as “binds”; in experiment [2], “no binding”.
